The target of this experiment is T1, endogenous Nox2 (neonatal rat cardiomyocytes) (rat (endogenous in NRCMs)) (UniProt Q9ERL1).
T1 sequence: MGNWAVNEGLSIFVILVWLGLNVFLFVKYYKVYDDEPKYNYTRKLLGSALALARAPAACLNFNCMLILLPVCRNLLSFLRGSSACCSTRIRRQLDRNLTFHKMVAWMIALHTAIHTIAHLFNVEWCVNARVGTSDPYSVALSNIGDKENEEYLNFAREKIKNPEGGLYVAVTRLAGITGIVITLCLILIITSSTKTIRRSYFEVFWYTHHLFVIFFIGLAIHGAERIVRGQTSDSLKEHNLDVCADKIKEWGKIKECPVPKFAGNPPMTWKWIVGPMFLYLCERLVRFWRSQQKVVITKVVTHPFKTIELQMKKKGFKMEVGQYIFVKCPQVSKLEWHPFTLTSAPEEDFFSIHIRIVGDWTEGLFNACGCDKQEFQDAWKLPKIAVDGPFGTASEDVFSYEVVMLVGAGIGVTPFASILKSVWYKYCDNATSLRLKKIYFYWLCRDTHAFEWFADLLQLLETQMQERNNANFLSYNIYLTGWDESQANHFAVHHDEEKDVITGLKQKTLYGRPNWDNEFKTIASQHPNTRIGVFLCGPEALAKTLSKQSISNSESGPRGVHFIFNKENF
The experiment is described as follows: proximity ligation; Duolink PLA Fluorescence in fixed NRCMs, with or without 1 mM ATP for 12 h; rabbit anti-TRPC3 and mouse anti-Nox2.

These are yes or no findings as the source states them, for the method shown. In cells and extracts the contact can be indirect. Some entries that bind do so weakly or less than the wild type.

B1: endogenous TRPC3 (neonatal rat cardiomyocytes) (protein, UniProt Q9JMI9 1-909)
chain: MSTKVKKCREPARVTLPAPEEEDGEAEGAEPQRRRRGWRGVNGGLEPPCPRAPPSPGPDASSEGSPSRWRTAGMRDKGRRQAVRGPAFMFGARGPSLTAEEERFLDAAEYGNIPVVRKMLEESRTLNVNCVDYMGQNALQLAVGNEHLEVTELLLKKENLARIGDALLLAISKGYVRIVEAILGHPGFAASRRLTLSPCEQELRDDDFYAYDEDGTRFSPDITPIILAAHCHKYEVVHLLLLKGARIERPHDYFCRCADCAEKQRLDAFSHSRSRINAYKGLASPAYLSLSSEDPVLTALELSNELAKLANIEKEFKNDYRKLSMQCKDFVVGVLDLCRDSEEVEAILNGDLESVEPLERHGHKASLSRVKLAIKYEVKKFVAHPNCQQQLLTIWYENLSGLREQTIAIKCLVVLVVALGLPFLAIGYWIAPCSRLGKILRSPFMKFVAHAASFIIFLGLLVFNASDRFEGITTLPNITVIDYPKQIFRVKTTQFTWTEMLIMVWVLGMMWSECKELWLEGPREYIVQLWNVLDFGMLSIFIAAFTARFLAFLQATKAQQYVDSHVQESDLSEVTLPPEVQYFTYARDKWLPSDPQIISEGLYAIAVVLSFSRIAYILPANESFGPLQISLGRTVKDIFKFMVLFIMVFLAFMIGMFILYSYYLGAKVNPAFTTVEESFKTLFWSIFGLSEVTSVVLKYDHKFIENIGYVLYGIYNVTMVVVLLNMLIAMINSSYQEIEDDSDVEWKFARSKLWLSYFDDGKTLPPPFSLVPSPKSFVYFIMRITNFSKCRRRRLQKDLELGMGNSKSRLNLFTQSNSRVFESHSFNSILNQPTRYQQIMKRLIKRYVLKAQVDKENDEVNEGELKEIKQDISSLRYELLEDKSQATEELAILIHKLSEKLNPSALRCE
As for B1, the binding entry was “binds”.

Values taken from PMC6611789.
